Construct, isoform or probe ends are uncertain for at least one entry. At least one verdict was read from the data and is not stated in words by the source.

The subject of this series is cGAS. Briefly: EMSA. The note with it: higher affinity than MAB21L1; EMSA: 20 mM Tris pH 8.0, 200 mM NaCl, 30 min on ice, 1% agarose gel, Gel-Red stain; recombinant protein; label: none (Gel-Red stain).

For the sequence “GGATACGTAACAACGCTTATGCATCGCCCCGCTACATCCCTGAGCTGAC (double strand) [50mer dsDNA]”, the binding result is reported as “binds”.

For the origin of these results see paper PMC4897736, “Structural and biochemical characterization of the cell fate determining nucleotidyltransferase fold protein MAB21L1” (Scientific Reports, 2016).
